The values that follow come from patent US20240102023.

Amino acid sequences for entries named in this document (tags omitted).
UniProt Q15648, whole entry: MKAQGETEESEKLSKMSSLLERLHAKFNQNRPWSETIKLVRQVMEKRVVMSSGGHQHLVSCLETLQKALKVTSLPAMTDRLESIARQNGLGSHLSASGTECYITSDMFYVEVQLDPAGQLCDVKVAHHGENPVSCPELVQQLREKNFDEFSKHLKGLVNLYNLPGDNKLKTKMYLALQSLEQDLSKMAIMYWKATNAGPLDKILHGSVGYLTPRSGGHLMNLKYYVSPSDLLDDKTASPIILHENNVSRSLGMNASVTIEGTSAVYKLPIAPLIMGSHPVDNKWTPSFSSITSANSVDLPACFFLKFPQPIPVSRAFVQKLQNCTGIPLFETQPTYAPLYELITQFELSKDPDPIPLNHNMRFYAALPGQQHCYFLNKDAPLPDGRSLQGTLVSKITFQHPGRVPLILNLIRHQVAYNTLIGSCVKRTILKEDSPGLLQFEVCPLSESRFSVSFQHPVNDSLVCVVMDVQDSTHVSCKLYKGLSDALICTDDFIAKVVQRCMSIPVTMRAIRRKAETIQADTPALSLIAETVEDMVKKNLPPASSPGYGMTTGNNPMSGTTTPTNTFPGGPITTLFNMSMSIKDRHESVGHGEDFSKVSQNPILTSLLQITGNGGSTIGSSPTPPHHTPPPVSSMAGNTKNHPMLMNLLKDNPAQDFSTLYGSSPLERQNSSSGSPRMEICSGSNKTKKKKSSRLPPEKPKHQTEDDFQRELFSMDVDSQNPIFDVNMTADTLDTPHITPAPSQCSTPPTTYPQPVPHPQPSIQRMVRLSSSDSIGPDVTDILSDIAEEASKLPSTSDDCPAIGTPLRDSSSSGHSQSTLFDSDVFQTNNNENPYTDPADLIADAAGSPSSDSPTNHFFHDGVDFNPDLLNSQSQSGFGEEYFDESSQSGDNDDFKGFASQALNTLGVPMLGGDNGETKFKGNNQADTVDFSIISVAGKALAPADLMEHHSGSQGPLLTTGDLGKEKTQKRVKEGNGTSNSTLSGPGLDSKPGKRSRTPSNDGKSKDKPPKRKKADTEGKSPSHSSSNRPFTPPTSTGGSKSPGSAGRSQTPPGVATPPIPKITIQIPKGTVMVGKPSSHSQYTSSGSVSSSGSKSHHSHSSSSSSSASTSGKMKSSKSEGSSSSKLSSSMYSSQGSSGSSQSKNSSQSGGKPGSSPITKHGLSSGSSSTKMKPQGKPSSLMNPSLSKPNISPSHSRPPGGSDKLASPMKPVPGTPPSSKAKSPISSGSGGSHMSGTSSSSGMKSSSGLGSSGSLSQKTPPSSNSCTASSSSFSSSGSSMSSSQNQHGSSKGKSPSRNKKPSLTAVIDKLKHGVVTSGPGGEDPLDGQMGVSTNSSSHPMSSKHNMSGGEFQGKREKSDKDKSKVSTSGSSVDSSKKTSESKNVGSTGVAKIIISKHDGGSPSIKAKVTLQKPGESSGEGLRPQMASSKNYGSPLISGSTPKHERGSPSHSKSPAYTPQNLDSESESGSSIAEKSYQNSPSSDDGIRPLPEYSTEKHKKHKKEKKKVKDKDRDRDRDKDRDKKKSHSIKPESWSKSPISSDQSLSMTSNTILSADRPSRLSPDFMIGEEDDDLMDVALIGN

For some assays here: Construct, isoform or probe ends are uncertain for at least one entry. For some assays here: Negatives hold for the conditions tested.

Series [1] concerns MED1 WT (LXXLL motif protein). The series can be described thus: inhibition of the protein. The conditions noted are these: 2'-F on U and C, purified recombinant protein, dose not given here.
Series [2] concerns the target MED1 (nuclear extract) (Homo sapiens) (UniProt Q15648). The series can be described thus: inhibition of the protein. The note with it: 2'-F on U and C; 2 ug SP disrupts ER/MED1 from HeLa nuclear extract; protein in an extract; protein details: HeLa nuclear extract; variant of Aptamer P.
Series [3] relates to MED1 WT (LXXLL motif protein). The series can be described thus: pull-down. The note with it: 2'-F on U and C, 2 h 4 C, BC150 wash, purified recombinant protein.
Series [4] concerns MED1 Mutant (LXXAA motif protein). The series can be described thus: pull-down. The conditions noted are these: 2'-F on U and C; LXXAA mutant control; purified recombinant protein; protein details: immobilized.

With “GAAGACACGAGAGGAUCCACAUUUUCGGAUCAGUGCGCUUUGACGCAAUCUUC [MED1SP (shortened P)]”, the “functional effect of the aptamer” value in series [1] (blocks GST-ER/MED1 WT interaction in GST pull-down, 4 h 4 C, E2, variant of Aptamer P) was “active”; in series [2], “active”.
Consider “GGAAGACACGAGAGGAUCCACCAUUUUCGGAUCAGUGCGCUUUGACGCAAUCUUCCACAACCAGAAUUCAGACGAGCUGUGC [Aptamer P]”, for which, in series [1], the “functional effect of the aptamer” value is recorded as “active”. The binding result in series [3] (full P with flanks printed as SEQ 11) is “binds”; in series [4], “no binding”.
With “GGAAGACACGAGAGGAUCCACCGGAAAGGCGAGAGUGUUCAAAGAACCAGCAGUCCACAAUCAGAAUUCAGACGAGCUGUGC [Aptamer G]”, in series [1], the “functional effect of the aptamer” value was “active”. For the same sequence, the binding result in series [3] was “binds”; in series [4] it was “no binding”.
Regarding “GGAAGACACGAGAGGAUCCACCUUUUCGGAUGGAGAUGCUUUGUCAUUUGUGUCUUGCACCAGAAUUCAGACGAGCUGUGC [Aptamer O]”, the “functional effect of the aptamer” value in series [1] was “active”. Besides, the binding result in series [3] is on record as “binds”; in series [4], “no binding”.
For “GGAAGACACGAGAGGAUCCACCUUUUCGGGUCCCGUUUAACCUUGUUAACCGUCUUCCUGCCAGAAUUCAGACGAGCUGUGC [Aptamer K]” the same measures were “active”, “binds” and “no binding”.
Regarding “GGAAGACACGAGAGGAUCCACGCGAUGGGUAAUCAACUGCAUCUCCCGUACAGGUUACCACAGAAUUCAGACGAGCUGUGC [Aptamer B]”, the “functional effect of the aptamer” value in series [1] was “active”. For the same sequence, the binding result is recorded as “binds” in series [3] (immobilized protein, constant flanks possibly present) and “no binding” in series [4].
For the sequence “GGAAGACACGAGAGGAUCCACUGACAUGUGACUGGAGUUCAGACGUGUGCUCUUCCGAUCUCAGAAUUCAGACGAGCUGUGC [Aptamer X]”, in series [1], the “functional effect of the aptamer” value is “active”. Besides, the values for the binding result in series [3] and in series [4] were “binds” and “no binding”, respectively.
